No constants are given. Whether binding was seen depends on the method and setting. Binding seen in cells or lysates may run through a third protein. A result given as binding can be weak or reduced; the word gives no strength.

For this assay, the target named is Fbxo9 mutant lacking the F-box motif (Fbxo9ΔF), V5-tagged. The assay can be described thus: co-IP; lysates of well-transfected chicken embryos (n = 10 per treatment); IP with anti-V5, blotted with anti-Neurog2.

B1: Neurogenin 2 (Neurog2), endogenous (protein, UniProt Q9YH82 1-213)
chain: MPVKAESPAPAAEDELLLLRLASPAPSASLPSSAGEEDEDEEDGRPRRLQEGARRAGRQRGPPRAARTAETAQRIKRSRRLKANNRERNRMHNLNAALDALRDVLPTFPEDAKLTKIETLRFAHNYIWALTETLRLAGAARLGGAADAAPGAAAEGSPSPASSWSGGASPAPSASPYACTLSPGSPAGSASDAEHWPPPRGRFAPPPPPHRCL
Consider B1, for which the binding result is “binds”.
